# Measurements reported in PubChem BioAssay AID1053208 (Peter MacCallum Cancer Centre, 2014).
# Purpose: 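Find knock-downs that sensitise mouse osteosarcoma cells to doxorubicin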 (primary screen)
# System: mouse osteosarcoma cells, early-passage culture from an engineered mouse model of fibroblastic bone tumour
# Reagents: siRNA pool against mouse genes, 40 nM
# Duration: about 120 h (48 h before drug, then 72 h with drug)
# Challenge: doxorubicin 100 nM for 72 h, roughly 30-40% inhibitory dose
# Measurement: 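Viability read as ATP luminescence after 72 h of 100 nM doxorubicin or none, duplicate wells averaged, scaled to non-targeting siRNA, then expressed as robust z-scores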
# Reading the numbers: viability z-score with doxorubicin and doxorubicin viability vs non-targeting: higher = more viable cells under doxorubicin; viability z-score without drug: higher = more viable cells with knock-down alone; z-score of drug to no-drug ratio: higher = less drug sensitisation by knock-down
# Rule for the call: 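Called active if knock-down leaves viability unchanged without drug (z within -2 to 2) but lowers it with doxorubicin (z at or under -2)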
# The deposit covers about 17,000 reagents; below is a part drawn at random. Of all reagents, 788 (4.7%) are marked active. 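Calls rest on z-score classes alone; an extra cut-off of viability at most 70% of control was not applied to them.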 Reagents against one gene are numbered here.
Target gene,reagent no.,combined z-score class,viability z-score with doxorubicin,viability z-score without drug,z-score of drug to no-drug ratio,doxorubicin viability vs non-targeting,Call
Gyg1,1,no change with or without drug,-0.67,-0.51,-0.22,0.88,inactive
Tmprss2,1,no change with or without drug,-1.01,-1.85,0.34,0.85,inactive
Ric8b,1,no change with or without drug,-0.67,0.51,-0.9,0.88,inactive
Btbd35f1,1,no change with or without drug,-0.67,-0.84,0,0.88,inactive
Gdf6,1,no change with or without drug,-0.22,0,-0.11,0.92,inactive
Umod,1,no change with or without drug,-0.79,0.51,-1.01,0.87,inactive
Crocc,1,no change with or without drug,-0.9,-0.51,-0.56,0.86,inactive
Ikzf3,1,high cell count without drug only,1.35,2.53,-0.22,1.06,inactive
Espn,1,no change with or without drug,0.67,0.51,0.45,1,inactive
Fbxo42,1,low cell count without drug only,-1.57,-2.19,0,0.8,inactive
Ier3,1,no change with or without drug,-0.67,-0.67,-0.11,0.88,inactive
Gpr183,1,no change with or without drug,-0.22,-1.35,0.9,0.92,inactive
Asph,1,no change with or without drug,0.56,0.84,0.11,0.99,inactive
Zik1,1,no change with or without drug,-0.22,1.52,-1.12,0.92,inactive
Niban2,1,no change with or without drug,-1.12,-0.34,-0.9,0.84,inactive
Trmt61a,1,no change with or without drug,-0.67,-0.67,-0.11,0.88,inactive
F3,1,no change with or without drug,-0.22,-0.17,0,0.92,inactive
Or5k15,1,low cell count with doxorubicin only,-2.02,-0.84,-1.57,0.76,active
Kifc5b,1,no change with or without drug,-1.12,-0.34,-0.9,0.84,inactive
Kifc5b,2,no change with or without drug,-0.56,-0.84,0.11,0.89,inactive
Pcdh15,1,no change with or without drug,1.69,0.51,1.46,1.09,inactive
Zfp810,1,no change with or without drug,0,0.17,0,0.94,inactive
Mst1r,1,no change with or without drug,-0.56,-0.51,-0.11,0.89,inactive
Fbln2,1,no change with or without drug,-0.56,0.51,-0.79,0.89,inactive
Bst2,1,low cell count with and without drug,-2.92,-2.53,-1.46,0.68,inactive
Tbpl1,1,no change with or without drug,-0.22,0.84,-0.67,0.92,inactive
Efs,1,no change with or without drug,0.67,0.17,0.67,1,inactive
Agtr1a,1,no change with or without drug,0.9,0.51,0.67,1.02,inactive
Pfn2,1,no change with or without drug,1.69,1.85,0.56,1.09,inactive
Atp11a,1,no change with or without drug,0,-0.17,0.22,0.94,inactive
Cabyr,1,no change with or without drug,-0.11,0.51,-0.34,0.93,inactive
Fut8,1,no change with or without drug,-1.24,-0.17,-1.12,0.83,inactive
Man1c1,1,no change with or without drug,0.11,0.51,-0.11,0.95,inactive
Sox10,1,no change with or without drug,-0.67,0,-0.56,0.88,inactive
Hps3,1,no change with or without drug,0.22,0.34,0.11,0.96,inactive
Fam131b,1,no change with or without drug,0.9,-1.52,2.36,1.02,inactive
Trim68,1,high cell count without drug only,1.57,2.02,0.34,1.08,inactive
Ap1s2,1,high cell count without drug only,0.79,2.19,-0.45,1.01,inactive
Thbd,1,no change with or without drug,0.67,0.17,0.67,1,inactive
Adam25,1,no change with or without drug,-0.9,-0.51,-0.56,0.86,inactive
Mlh1,1,no change with or without drug,-0.67,0.34,-0.79,0.88,inactive
Or52ad1,1,low cell count with doxorubicin only,-2.25,-1.52,-1.35,0.74,active
Pom121,1,no change with or without drug,-0.45,0,-0.34,0.9,inactive
Gjb6,1,no change with or without drug,0.9,0.17,0.9,1.02,inactive
Rcn1,1,no change with or without drug,-0.9,-0.34,-0.67,0.86,inactive
Mmel1,1,high cell count with doxorubicin only,2.36,1.18,1.69,1.15,inactive
Rab33a,1,no change with or without drug,0.45,0.34,0.34,0.98,inactive
Tcl1b3,1,low cell count with doxorubicin only,-2.36,-0.84,-1.91,0.73,active
Chmp3,1,no change with or without drug,-1.12,-0.17,-1.01,0.84,inactive
Adam7,1,no change with or without drug,-0.22,1.85,-1.24,0.92,inactive
Slc49a3,1,high cell count with doxorubicin only,2.36,1.35,1.57,1.15,inactive
Amd1,1,no change with or without drug,0,-0.34,0.34,0.94,inactive
Rwdd4a,1,no change with or without drug,0.67,-0.17,0.9,1,inactive
Clic6,1,low cell count with doxorubicin only,-2.7,-1.18,-2.02,0.7,active
Or55b4,1,no change with or without drug,-1.57,-1.52,-0.56,0.8,inactive
Nhp2,1,no change with or without drug,0.11,1.18,-0.56,0.95,inactive
Gsto2,1,no change with or without drug,0.79,1.52,-0.11,1.01,inactive
Or6c211,1,no change with or without drug,-1.57,0.51,-1.8,0.8,inactive
Ccl24,1,no change with or without drug,0.22,-0.84,1.01,0.96,inactive
Fbxl19,1,no change with or without drug,0.34,0.67,0,0.97,inactive
Ap3d1,1,high cell count without drug only,1.12,2.36,-0.34,1.04,inactive
Pepd,1,no change with or without drug,-1.12,0.51,-1.35,0.84,inactive
Trpv6,1,no change with or without drug,0.79,1.52,-0.11,1.01,inactive
